These are yes or no findings as the source states them, for the method shown. In cells and extracts the contact can be indirect. Some results given as binding are weak or reduced against the parent protein; the word gives no strength. For some assays here: Where a sequence is shown, tags or fusion partners need not be part of it.
T1: Wnt7a-Flag (pc-Wnt7a-Flag) (UniProt O00755)
T1 sequence: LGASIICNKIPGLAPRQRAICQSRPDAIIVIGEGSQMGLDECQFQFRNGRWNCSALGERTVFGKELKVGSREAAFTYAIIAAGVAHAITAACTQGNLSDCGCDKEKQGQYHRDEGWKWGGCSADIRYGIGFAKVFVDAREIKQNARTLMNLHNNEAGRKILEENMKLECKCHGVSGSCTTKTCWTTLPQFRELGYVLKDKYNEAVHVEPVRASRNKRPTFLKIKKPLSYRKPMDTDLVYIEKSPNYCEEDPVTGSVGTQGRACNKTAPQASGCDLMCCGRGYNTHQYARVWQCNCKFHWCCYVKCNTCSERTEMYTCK


Columns and labels:
[1] = biological target: T1, Wnt7a-Flag (pc-Wnt7a-Flag); assay: co-IP; HCE-2[50.B1] cell lysate incubated with anti-Flag antibody at 4 °C overnight, protein A/G magnetic beads, western blot for CALR
[2] = biological target: Calreticulin (CALR) (human (endogenous in HCE-2[50.B1])) (UniProt P27797); assay: co-IP; HCE-2[50.B1] cell lysate incubated with anti-CALR antibody at 4 °C overnight, protein A/G magnetic beads, western blot for Wnt7a

binding [1] | binding [2] | Molecule
binds |  | Calreticulin (CALR) (from UniProt P27797 18-417)
 | binds | Wnt7a (protein, UniProt O00755 32-349) LGASIICNKIPGLAPRQRAICQSRPDAIIVIGEGSQMGLDECQFQFRNGRWNCSALGERTVFGKELKVGSREAAFTYAIIAAGVAHAITAACTQGNLSDCGCDKEKQGQYHRDEGWKWGGCSADIRYGIGFAKVFVDAREIKQNARTLMNLHNNEAGRKILEENMKLECKCHGVSGSCTTKTCWTTLPQFRELGYVLKDKYNEAVHVEPVRASRNKRPTFLKIKKPLSYRKPMDTDLVYIEKSPNYCEEDPVTGSVGTQGRACNKTAPQASGCDLMCCGRGYNTHQYARVWQCNCKFHWCCYVKCNTCSERTEMYTCK

Source: paper PMC12267377
